Test results reported in patent US7341836B2, “Modified cyclic nucleotide gated ion channels” (The Regents of the University of Colorado, priority 2001, dated 2008).
For at least one compound, name, drawing or mass did not settle the structure. Some entries share one result that the patent states for a list of compounds.

How the values were obtained:
[1] = system: PDE activity in HEK-293 cells; test: Effect and in vivo KI of PDE inhibitors on forskolin-induced Ca2+ influx through CNG channels
Experimental: Next, experiments were conducted to pharmacologically identify the PDE type(s) that regulates cAMP levels near CNG channels. The C460W/E583M channels were used to monitor forskolin-stimulated cAMP accumulation in the presence and absence of a series of PDE inhibitors. […] In these experiments, inhibitor concentrations were used at which specific PDE types should be inhibited.
This required developing a quantitative framework to assess the relationship between cAMP synthesis, hydrolysis, and redistribution throughout the cell. Thus, the following formalism was adopted:
[formula] where C is the steady-state rate of cAMP synthesis by AC, Vmax is the maximal rate of cAMP hydrolysis, Km is the Michaelis constant for PDE, and kf is the rate constant of cAMP flux out of the microdomain. In order to estimate KI for the PDE inhibitors two assumptions were made. […]
[formula] […] Thus, KI, can be estimated using a linear fit to the square root of the slopes of the fluorescence traces as a function of inhibitor concentration (See, FIG. 11).
Increases in local cAMP concentration activate CNG channels and trigger Ca^2+ entry. Ca^2+ influx was monitored in cell populations using the fluorescent indicator fura-2. […]
Fluorescence was measured at an excitation wavelength of 380 nm and an emission wavelength of 510 nm. […]

[2] = system: PDE activity in GH4C1 cells; test: Effect of PDE inhibitors, forskolin and VIP on cAMP levels (Ca2+ influx through CNG channels); type: cell-based, rat; conditions: C460W/E583M channels; 10 μM forskolin or 100 nM VIP after IBMX or vehicle
Experimental: To further test the utility of this approach, PDE activity in excitable GH4C1 pituitary cells was examined. In all of the experiments shown (See, FIGS. 13-14, and Table 2), 1 μM nimodipine was added at time zero to block Ca^2+ influx though voltage-gated Ca^2+ channels (triggered by membrane depolarization due to Ca^2+ and Na^+ influx through CNG channels). […] FIGS. 13 and 14 each depict experiments done on a single batch of cells. As before, similar results were obtained on three other batches. In the experiments that produced the data shown in Table 2, cAMP concentrations were monitored using Ca^2+ influx through C460W/E583M channels. […] Either 100 μM IBMX or vehicle (-IBMX; control) were added at time zero. Then, 50 μM forskolin were added at 180 seconds d(ΔF/F0)/dt, which is proportional to the Ca^2+ influx rate, was estimated as described in the Examples. Data are provided as mean±standard error. IBMX or vehicle was added at 60 seconds (first arrow in FIG. 13). Either 10 μM forskolin or 100 nM VIP were added at 240 seconds (second arrow in FIG. 13). […]
To identify the PDE family or families that regulate the local cAMP concentration in GH4C1 cells, cAMP accumulation was monitored in the presence and absence of PDE inhibitors (See, Table 2). […]
In addition, PDE activity was monitored using Δ61-90/C460W/E583M channels to detect changes in cAMP concentration (See, FIG. 14). […]

[3] = system: HEK-293 cells expressing CNG channels; test: Forskolin-induced cAMP accumulation monitored by Ca2+ influx (fura-2) through expressed CNG channels; type: cell-based, human; conditions: 1 μM nimodipine; data not shown
Experimental: Next, experiments were conducted to assess the ability of each channel construct to detect increases in local cAMP concentration. Changes in cAMP concentration were detected using fura-2 to monitor Ca^2+ influx through CNG channels, as described in the Examples. Ca^2+ influx induced by different concentrations of forskolin, an AC activator, in the presence of 100 μM IBMX, a nonselective PDE inhibitor was measured. This approach allowed comparisons to be made between the cAMP sensitivities of the different channels to changes in cAMP, regardless of variations in expression levels between experiments. In HEK-293 cells expressing the WT channel, addition of forskolin was followed by a brief delay and an increase in Ca^2+ influx (See, FIG. 7, Panel A). The delay decreased and the rate of Ca^2+ influx increased in a dose-dependent manner. Neither effect was saturated at 50 μM forskolin. In cells expressing the E583M channel, addition of forskolin was also followed by a brief delay and an increase in Ca^2+ influx (FIG. 7, Panel B). As with the WT channel, the delay and the initial rate of Ca^2+ influx were dose-dependent. […] The increased response of the modified channels to forskolin treatment is consistent with the apparent cAMP affinities measured in excised patches in the absence of Ca^2+-CaM (C460W/E583M>E583M˜Δ61-90/C460W/E583>WT channels). […]

[4] = system: voltage-gated Ca^2+ channels; test: Block of Ca2+ influx through voltage-gated Ca2+ channels activated by 24 mM external KCl; type: cell-based; conditions: 1 μM nimodipine; depolarization in 24 mM external KCl

## CCOC(=O)c1cnc2c(cnn2CC)c1NN=C(C)C [Etazolate]
[1]; C460W/E583M channels, 1 μM forskolin, IBMX 10 or 100 μM, RO-20-1724 10 μM
  effect on forskolin-induced Ca2+ influx: significantly increased the forskolin-induced Ca^2+ influx

## COc1ccc(C2CNC(=O)C2)cc1OC1CCCC1 (centres unmarked) [Rolipram]
[1]; data not shown
  time to complete equilibration across the plasma membrane of HEK-293 cells: < 180 s

## C=C[C@@]1(C)CC(=O)[C@]2(O)[C@@]3(C)[C@@H](O)CCC(C)(C)[C@@H]3[C@H](O)[C@H](OC(C)=O)[C@@]2(C)O1 [forskolin]
[2]
  cAMP accumulation and Ca2+ influx after AC stimulation: caused additional cAMP accumulation and Ca^2+ influx

## COCCOC(=O)C1=C(C)NC(C)=C(C(=O)OC(C)C)C1c1cccc([N+](=O)[O-])c1 (centres unmarked) [nimodipine]
[3]
  effect on forskolin or pCPT-cGMP induced Ca2+ influx through CNG channels: did not alter
[4]
  block of Ca2+ influx through voltage-gated Ca2+ channels: sufficient to block Ca^2+ influx through voltage-gated Ca^2+ channels
